Experimental data: publication PMC11882969 (Nature Communications, 2025)
“And” between values parts separate entries of the source, which are not always exact repeats. Equal values may be shown once. This continues a long series; more values of the same kind are listed elsewhere.

The chains behind the UniProt entries cited, without tags or fusion partners.
UniProt P21554, whole entry: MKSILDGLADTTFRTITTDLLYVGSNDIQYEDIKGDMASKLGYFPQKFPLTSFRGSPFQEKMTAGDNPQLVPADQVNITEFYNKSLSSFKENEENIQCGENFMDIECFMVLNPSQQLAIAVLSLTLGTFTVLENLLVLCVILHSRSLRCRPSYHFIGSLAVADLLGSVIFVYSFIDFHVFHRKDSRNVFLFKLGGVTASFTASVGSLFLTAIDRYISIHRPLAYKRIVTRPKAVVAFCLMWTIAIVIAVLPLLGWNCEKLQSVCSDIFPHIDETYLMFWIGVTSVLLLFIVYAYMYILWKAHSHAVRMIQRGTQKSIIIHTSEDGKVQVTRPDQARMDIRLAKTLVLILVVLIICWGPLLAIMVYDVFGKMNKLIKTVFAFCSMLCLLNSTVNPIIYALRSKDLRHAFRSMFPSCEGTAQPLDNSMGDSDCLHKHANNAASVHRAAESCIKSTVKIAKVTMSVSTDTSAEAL
UniProt P34972, whole entry: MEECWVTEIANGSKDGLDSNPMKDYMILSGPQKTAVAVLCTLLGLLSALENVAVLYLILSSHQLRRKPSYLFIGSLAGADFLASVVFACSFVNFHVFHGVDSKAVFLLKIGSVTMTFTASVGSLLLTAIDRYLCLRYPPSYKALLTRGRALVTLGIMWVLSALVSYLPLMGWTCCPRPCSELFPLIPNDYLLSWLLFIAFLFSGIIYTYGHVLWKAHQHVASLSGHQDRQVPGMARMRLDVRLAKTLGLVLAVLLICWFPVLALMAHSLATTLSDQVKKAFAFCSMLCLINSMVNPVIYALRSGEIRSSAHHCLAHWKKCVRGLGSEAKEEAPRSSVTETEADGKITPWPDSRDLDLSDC

What was measured:
[1] = target: hCB1 (Homo sapiens, UniProt P21554); assay: Tango β-arrestin-2 recruitment, HTLA cells, CB1R; assay type: cell-based; parameters: expressed in transfected cells; host or cells: HTLA cells (gift of R. Axel), transient transfection
[2] = target: hCB2 (Homo sapiens, UniProt P34972); assay: TRUPATH BRET2 GoA dissociation, HEK293T; assay type: cell-based; parameters: expressed in transfected cells; host or cells: HEK293T cells (ATCC: CRL-3216), transient co-transfection; conditions: replicate columns

Row | SMILES | response, replicate values of concentration-response curve (FigS7f) ([1]; Log[drug] in M = -8) | response, replicate values of concentration-response curve (FigS7f) ([1]; Log[drug] in M = -8.52) | response, replicate values of concentration-response curve (FigS7f) ([1]; Log[drug] in M = -9) | response, replicate values of concentration-response curve (FigS7f) ([1]; Log[drug] in M = -9.52) | functional response, concentration-response point (FigS7e, normalized) ([2]; Log[drug] in M = -9) | functional response, concentration-response point (FigS7e, normalized) ([2]; Log[drug] in M = -9.52) | functional response, concentration-response point (FigS7e, normalized) ([2]; Log[drug] in M = -10) | functional response, concentration-response point (FigS7e, normalized) ([2]; Log[drug] in M = -10.52) | functional response, concentration-response point (FigS7e, normalized) ([2]; Log[drug] in M = -11) | functional response, concentration-response point (FigS7e, normalized) ([2]; Log[drug] in M = -11.52) | functional response, concentration-response point (FigS7e, normalized) ([2]; Log[drug] in M = -12) | functional response, concentration-response point (FigS7e, normalized) ([2]; Log[drug] in M = -4.52)
1 | COC(=O)[C@@H]1[C@@H]2CCC[C@@H]2CN1C(=O)c1cc(C)n(-c2cccc(Cl)c2)n1 (racemic) [‘10010] | -50.0737 and -6.482 and 0.6288 and 1.583 and -35.9577 and -25.6736 and 3.588 and -5.354 and 5.296 and 10.0411 and -22.9484 and -9.607 | 33.1038 and 12.658 and 7.2455 and -21.6661 and -19.2377 and -1.788 and -12.1741 and 1.638 and 7.286 and 21.1773 and -10.7368 and -8.276 | -10.6778 and 12.0242 and 13.8115 and 7.05 and -13.3858 and -8.609 and 13.3383 and -7.627 and -23.0257 and 34.5007 and 1.056 and 13.6681 | -2.796 and 29.5951 and 8.317 and -8.769 and -1.8277 and 19.136 and -37.1648 and -36.8003 | 0.5634 and -0.3529 and 0.2365 and 0.6575 and 0.2282 and 0.6319 and 0.3753 and 1.111 and -0.09291 and 0.0625 and 0.08615 and 0.2483 | -0.04582 and -0.001238 and 0.7962 and 0.2662 and 0.5715 and -0.1754 and 0.2886 and 0.6658 and -0.07601 and -0.06926 and 0.04899 and 0.05574 | -0.2984 and -0.05077 and -0.1746 and 0.1771 and 0.2659 and 0.001886 and 0.1792 and 0.9714 and -0.2145 and -0.1368 and -0.005068 and -0.08615 | -0.1053 and -0.13 and -0.3777 and -0.1449 and 0.2094 and 0.281 and -0.149 and -0.2433 and -0.04223 (2×) and 0.6064 and 0.0152 | 0.06315 and 0.9894 and 0.4396 and -0.03591 and 0.3678 and -0.1188 and -0.001886 and 0.2697 and -0.1706 and 0.008446 and -0.1976 and -0.2652 | 0.3901 and -0.06068 and 1.668 and 0.6773 and 1.111 and 0.09997 and -0.04715 and 0.1037 and -0.3666 and 0.09966 and -0.1267 and -0.0625 | 0.2245 and -0.2131 and -0.1528 and 0.1415 and 0.201 and -0.3226 and -0.03547 and 0.1571 | 
2 | COC(=O)[C@@H]1[C@@H]2CCC[C@@H]2CN1C(=O)c1cc(C)n(-c2cccc(C(F)(F)F)c2)n1 [‘6439] | 8.888 and -10.4292 and 21.5767 and -22.8584 and 10.6877 and 23.7054 and -3.03 and -25.4505 and -11.5273 and -38.9085 and 5.7458 and 45.3696 | -14.5868 and 2.12 and -14.2573 and -12.1496 and -17.9485 and -1.587 and 2.416 and 0.9712 and -11.8708 and -18.969 and 2.392 and 30.6611 | -11.1644 and -28.8723 and -9.377 and -20.3371 and 7.569 and 22.8296 and -25.6829 and 19.6837 and -2.696 and -21.5753 and 28.6015 and 26.5602 | 7.801 and 7.8924 and -6.684 and 10.8674 and 11.8334 | -0.3699 and -0.629 and -0.4075 and -0.1343 and -0.3404 and -0.2341 and 0.1145 and 0.1115 and 0.0731 and 0.05482 and 0.5848 and 0.05117 | -0.2521 and -0.4876 and 0.08245 and 0.4641 and -0.2961 and 0.2119 and 0.07606 and 0.2444 and -0.1791 and -0.2705 and 0.2376 and 0.1498 | 0.1578 and 0.6054 and -0.2426 and -0.08716 and -0.302 and 0.587 and -0.1484 and 0.2031 and -0.1316 and 0.1352 and 0.2266 and 0.2705 | 0.417 and 1.067 and -0.2097 and -0.6384 and -0.2577 and -0.003692 and -0.5501 and -0.2164 and 0.01462 and 0.1133 and -0.2156 and 0.4386 | -0.1249 and -0.1814 and -0.06361 and 0.3416 and -0.4024 and -0.3168 and -0.3315 and 0.3744 and 0.2668 and 0.201 and 0.1535 and 0.04386 | 0.5724 and 0.2002 and 0.6149 and 0.662 and -0.2754 and 0.2474 and 0.2385 and -0.11 and 0.19 and -0.06944 and 0.1681 and -0.117 | -0.06277 and -0.3788 and 0.2119 and 0.2296 and 0.3545 and 0.1498 and -0.2156 and -0.2887 | 
3 | COC(=O)C(NC(=O)c1cc(C)n(-c2cccc(C(F)(F)F)c2)n1)c1cccs1 (stereo not drawn) [‘60154] | 5.662 and 44.2322 and 0.6715 and -38.8065 and -37.3719 and -32.3397 and 2.737 and -16.836 and -23.2586 and 11.7794 and -7.004 and 2.645 | 31.5201 and 15.8539 and -7.22 and 3.077 and 5.6872 and -25.4568 and 14.693 and -5.291 and 4.581 and -3.063 and -9.398 and -16.9561 | 36.527 and -18.5936 and 28.2842 and -24.2438 and -27.0413 and -11.4376 and 6.346 and 0.7465 and -10.1746 and 6.091 and -16.8046 and -30.7581 | 4.777 and 6.03 | 0.6163 and 0.5183 and 0.4074 and 1.047 and -0.2357 and 0.1979 and 0.1575 and -0.04009 and 0.3689 and 0.06463 and 0.2642 and -0.2325 | 0.2685 and 0.03626 and 0.3306 and 0.1173 and -0.1752 and 0.8129 and 1.216 and 0.4508 and 0.4115 and 0.05154 and 0.2479 and -0.2453 | 0.4852 and 0.1984 and 0.2837 and 0.1429 and -0.2054 and -0.4121 and -0.2206 and -0.292 and -0.1252 and -0.2855 and 0.2348 and 0.3434 | -0.2155 and -0.1301 and 0.1173 and 0.6122 and -0.05924 and -0.4575 and 0.3894 and -0.3771 and -0.1415 and 0.6209 and -0.03027 and 0.6932 | -0.2407 and 0.2837 and 0.3434 and 0.1088 and 0.1575 and 0.2735 and -0.008823 and -0.09899 and -0.3935 and 0.04172 and -0.027 and 0.3306 | 0.2937 and -0.224 and 0.3989 and -0.08319 and 0.4298 and 0.2332 and 0.7726 and -0.1284 and 0.8434 and -0.1448 and 0.03845 and 0.1642 | -0.5482 and -0.07466 and -0.02773 and 0.1642 and -0.271 and 0.6314 and 0.1878 and 0.3068 and 0.3591 and -0.1742 and -0.4917 and -0.06186 | 20.6654 and 19.9889 and 23.0059 and 15.8569 and 16.3793 and 14.9787 and 14.9484 and 19.8456
4 | Cc1cc(C(=O)N2CC3(CCC3)C2C2CCCO2)nn1-c1cccc(C(F)(F)F)c1 (stereo not drawn) [‘3737] | 20.4123 and 28.3093 and -3.1263 and -13.6436 and 12.9092 and 43.9738 and -17.7328 and -7.871 and -2.85 and 12.9287 and 26.9082 | 3.731 and -5.75 and -45.2348 and -21.8046 and -32.7787 and -4.62 and -20.9964 and 0.2016 and -12.8324 and -16.7254 and -40.4377 | 31.9092 and 23.1249 and -0.1881 and 29.7088 and 13.1348 and 18.2371 and -3.466 and 3.738 and -37.9225 and 71.0157 |  | 0.0674 and -0.4574 and -0.1541 and -0.2937 and -0.01634 and 1.0402 and 0.005446 and -0.1507 and 1.555 and 0.4069 (2×) and 0.2093 | 0.2167 and -0.3129 and -0.04815 and -0.4044 and 0.4847 and 0.05991 and 0.1725 and -0.06354 and 0.4351 and 0.3316 and 0.1058 and 0.1717 | -0.04333 and -0.4526 and 0.5874 and -0.3659 and 1.204 and 0.1035 and 0.5137 and 0.2233 and 0.2328 and 0.5433 and 0.214 and -0.3034 | -0.3852 and -0.1155 and -0.6114 and 0.727 and 1.037 and 0.08532 and -0.01271 and 0.3032 and 0.07761 and 0.3175 and 0.4069 and -0.08232 | 0.1204 and 0.2696 and 0.9581 and 0.1492 and 0.118 and 0.6263 and -0.2596 and 0.5246 and 0.1105 and -0.1058 and -0.167 and -0.03998 | -0.05296 and -0.02889 and -0.2552 and 0.1059 and -0.1979 and 0.05628 and 0.6118 and 0.6445 and 0.1105 and 0.0588 and 0.3504 and 0.167 | -0.2306 and 0.4629 and 0.2705 and -0.5029 and -0.1058 and 0.1482 and -0.1952 and 0.1529 | 
5 | COC(=O)C(C)(NC(=O)c1cc(C)n(-c2cccc(C(F)(F)F)c2)n1)c1cccs1 (stereo not drawn) [‘4042] | 5.47 and 20.5031 and -17.7013 and 3.868 and -9.946 and 16.1296 and 11.8289 and 2.756 and -4.61 and 53.764 and 31.1817 and 101.626 | -26.7897 and 2.136 and -8.778 and 14.6567 and 11.5117 and 19.9513 and -8.793 and -8.652 and 7.292 and -12.543 and 23.0893 and -38.5701 | 3.86 and 10.8189 and -7.168 and -0.5372 and 18.0936 and 0.8694 and -3.216 and -14.128 and -10.0259 and 52.6158 and 14.8328 and 50.7749 | 4.227 and 21.1323 and -4.893 and 12.031 and 1.543 and 47.2755 and -8.005 and 4.79 | 0.3035 and 1.168 and 1.593 and 0.5433 and 0.263 and -0.001911 and 0.5967 and -0.2668 and 0.5652 and 0.6952 and 0.5499 and 0.6034 | 0.5783 and 0.1986 and 0.3035 and -0.5508 and -0.4503 and 0.477 and 0.1025 and 0.342 and 0.2553 and 0.5996 and 0.07172 and 0.2821 | 0.4234 and 0.2486 and 0.3685 and 0.04871 and -0.2184 and -0.4987 and -0.05795 and 0.07706 and 0.2515 and 0.11 and 0.2859 and 0.5919 | -0.4259 and 1.1379 and 0.3635 and 0.02873 and -0.2286 and -0.2261 and -0.7534 and -0.5802 and 0.152 and -0.1234 and -0.06216 and 0.328 | 0.1187 and 0.1486 and 0.1386 and 1.752 and -0.4987 and -0.3917 and 0.3777 and 0.05923 and 0.1903 and -0.04686 and 0.1023 and 0.1788 | -0.142 and -0.2668 and 0.06942 and 0.1229 and -0.2611 and 0.6302 and 0.2515 and 0.04112 |  | 
